Binding data for two molecules are collected here from patent EP4705353A2 (dated 2026).

Results are given in words; binding and its absence hold for the method and conditions named. Some entries that bind do so weakly or less than the wild type.

The target in assay [1] is T1, endogenous B7H3 on cancer cell lines (UniProt Q5ZPR3).
T1 sequence (looked up): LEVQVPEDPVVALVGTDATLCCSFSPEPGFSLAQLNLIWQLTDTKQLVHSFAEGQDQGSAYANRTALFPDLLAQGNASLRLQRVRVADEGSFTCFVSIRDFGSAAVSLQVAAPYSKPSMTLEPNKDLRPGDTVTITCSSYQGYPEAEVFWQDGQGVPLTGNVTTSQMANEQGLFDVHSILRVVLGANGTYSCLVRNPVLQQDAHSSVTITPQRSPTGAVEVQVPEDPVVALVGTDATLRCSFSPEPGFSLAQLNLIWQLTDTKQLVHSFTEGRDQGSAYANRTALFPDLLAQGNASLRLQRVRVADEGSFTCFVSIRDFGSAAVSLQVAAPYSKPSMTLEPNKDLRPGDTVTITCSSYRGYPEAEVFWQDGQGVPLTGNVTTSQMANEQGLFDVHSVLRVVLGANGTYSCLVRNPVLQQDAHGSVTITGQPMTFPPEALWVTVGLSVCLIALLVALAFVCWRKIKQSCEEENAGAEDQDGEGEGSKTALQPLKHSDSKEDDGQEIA
Description: FACS on cancer cell lines.

For assay [2], the target named is T2, full length human B7H3 expressed on CHOK1 cells (human) (UniProt Q5ZPR3).
T2 sequence (looked up): T1 sequence (looked up)
Description: FACS, VH titrated with or without 20 nM Enoblituzumab as competitor.

B1: BH-07 anti-B7H3 scFv (scFv, not shown: small tags and cut ends)
scFv: EVQLVESGGGVVQPGRSLRLSCAASGFTFSRYAMHWVRQAPGKGLEWVAVISYDGNNKYYGDSVKGRFTISRDNSKNTLYLQMNSLRTEDTAVYYCARTERWLGGDFDYWGQGTLVTVSSGGGGSGGGGSGGGGSSSELTQPPSASGTPGQRVTISCSGSTSNVGRYSVSWYQQVPGTAPKLLIYRSDQRPSGVPDRFSGSKSGTSASLAISGLRSEDEADYYCAAWDDSLREVFGGGTKLTVL
For B1, in assay [1], the binding entry was “binds”.

B2: BH-02 anti-B7H3 VH antibody (VHH, not shown: small tags and cut ends)
VHH: EVQLVESGGGVVQPGRSLRLSCAASGFTFSSYAMHWVRQAPGKGLKWVAVISYDGSNKYYADSVKGRFTISRDNSKNTLYLQMNGLRAEDTAVYYCARDLAAMVTRDDYWGQGTLVTVSS
Regarding B2, the binding entry in assay [2] is recorded as “binds”.
